Laboratory results reported in patent US20120196933A1, “MEXILETINE PRODRUGS” (priority 2010, published 2012).
Some entries share one result that the patent states for a list of compounds. At least one compound was matched to its structure with a doubt left.

Key:
[1] = Systemic availability of mexiletine in the cynomolgus monkey from mexiletine prodrugs (oral gavage); type: in vivo; conditions: 1 mg/kg mexiletine free base, relative to mexiletine, listed as glutamic acid amide, Hydrochloride
Protocol: Test substances (i.e., mexiletine, and various mexiletine amino acid prodrugs) were administered by oral gavage to groups of two and, in one case, five male cynomolgus monkeys. Blood samples were taken at various times after administration and submitted to analysis for the parent drug using a validated LC-MS-MS assay. Pharmacokinetic parameters derived from the plasma bioanalytical data were determined using Win Nonlin.

[2] = Systemic availability of mexiletine in the dog from mexiletine prodrugs (oral gavage); type: in vivo; conditions: 1 mg/kg mexiletine free base, relative to mexiletine, listed as glutamic acid amide, Hydrochloride
Protocol: Test substances (i.e., mexiletine, and various mexiletine amino acid prodrugs) were administered by oral gavage to groups of two or some cases five dogs. The characteristics of the test animals are set out in Table 6.
Blood samples were taken at various times after administration and submitted to analysis for parent drug using a validated LC-MS-MS assay. Pharmacokinetic parameters derived from the plasma bioanalytical data were determined using Win Nonlin.

Cc1cccc(C)c1OCC(C)NC(=O)C(N)CCC(=O)O.Cl (mixture of isomers) [Mexiletine glutamic acid amide, Mexiletine-(S)-Glutamic Acid Amide Hydrochloride]
F(rel) [1]: > 80%
F(rel) [2]: > 80%
